The results in this text go back to PMC12266122.

Protein sequences, listed by entry. Tags and fused reporters are not part of them.
UniProt Q9H4A3: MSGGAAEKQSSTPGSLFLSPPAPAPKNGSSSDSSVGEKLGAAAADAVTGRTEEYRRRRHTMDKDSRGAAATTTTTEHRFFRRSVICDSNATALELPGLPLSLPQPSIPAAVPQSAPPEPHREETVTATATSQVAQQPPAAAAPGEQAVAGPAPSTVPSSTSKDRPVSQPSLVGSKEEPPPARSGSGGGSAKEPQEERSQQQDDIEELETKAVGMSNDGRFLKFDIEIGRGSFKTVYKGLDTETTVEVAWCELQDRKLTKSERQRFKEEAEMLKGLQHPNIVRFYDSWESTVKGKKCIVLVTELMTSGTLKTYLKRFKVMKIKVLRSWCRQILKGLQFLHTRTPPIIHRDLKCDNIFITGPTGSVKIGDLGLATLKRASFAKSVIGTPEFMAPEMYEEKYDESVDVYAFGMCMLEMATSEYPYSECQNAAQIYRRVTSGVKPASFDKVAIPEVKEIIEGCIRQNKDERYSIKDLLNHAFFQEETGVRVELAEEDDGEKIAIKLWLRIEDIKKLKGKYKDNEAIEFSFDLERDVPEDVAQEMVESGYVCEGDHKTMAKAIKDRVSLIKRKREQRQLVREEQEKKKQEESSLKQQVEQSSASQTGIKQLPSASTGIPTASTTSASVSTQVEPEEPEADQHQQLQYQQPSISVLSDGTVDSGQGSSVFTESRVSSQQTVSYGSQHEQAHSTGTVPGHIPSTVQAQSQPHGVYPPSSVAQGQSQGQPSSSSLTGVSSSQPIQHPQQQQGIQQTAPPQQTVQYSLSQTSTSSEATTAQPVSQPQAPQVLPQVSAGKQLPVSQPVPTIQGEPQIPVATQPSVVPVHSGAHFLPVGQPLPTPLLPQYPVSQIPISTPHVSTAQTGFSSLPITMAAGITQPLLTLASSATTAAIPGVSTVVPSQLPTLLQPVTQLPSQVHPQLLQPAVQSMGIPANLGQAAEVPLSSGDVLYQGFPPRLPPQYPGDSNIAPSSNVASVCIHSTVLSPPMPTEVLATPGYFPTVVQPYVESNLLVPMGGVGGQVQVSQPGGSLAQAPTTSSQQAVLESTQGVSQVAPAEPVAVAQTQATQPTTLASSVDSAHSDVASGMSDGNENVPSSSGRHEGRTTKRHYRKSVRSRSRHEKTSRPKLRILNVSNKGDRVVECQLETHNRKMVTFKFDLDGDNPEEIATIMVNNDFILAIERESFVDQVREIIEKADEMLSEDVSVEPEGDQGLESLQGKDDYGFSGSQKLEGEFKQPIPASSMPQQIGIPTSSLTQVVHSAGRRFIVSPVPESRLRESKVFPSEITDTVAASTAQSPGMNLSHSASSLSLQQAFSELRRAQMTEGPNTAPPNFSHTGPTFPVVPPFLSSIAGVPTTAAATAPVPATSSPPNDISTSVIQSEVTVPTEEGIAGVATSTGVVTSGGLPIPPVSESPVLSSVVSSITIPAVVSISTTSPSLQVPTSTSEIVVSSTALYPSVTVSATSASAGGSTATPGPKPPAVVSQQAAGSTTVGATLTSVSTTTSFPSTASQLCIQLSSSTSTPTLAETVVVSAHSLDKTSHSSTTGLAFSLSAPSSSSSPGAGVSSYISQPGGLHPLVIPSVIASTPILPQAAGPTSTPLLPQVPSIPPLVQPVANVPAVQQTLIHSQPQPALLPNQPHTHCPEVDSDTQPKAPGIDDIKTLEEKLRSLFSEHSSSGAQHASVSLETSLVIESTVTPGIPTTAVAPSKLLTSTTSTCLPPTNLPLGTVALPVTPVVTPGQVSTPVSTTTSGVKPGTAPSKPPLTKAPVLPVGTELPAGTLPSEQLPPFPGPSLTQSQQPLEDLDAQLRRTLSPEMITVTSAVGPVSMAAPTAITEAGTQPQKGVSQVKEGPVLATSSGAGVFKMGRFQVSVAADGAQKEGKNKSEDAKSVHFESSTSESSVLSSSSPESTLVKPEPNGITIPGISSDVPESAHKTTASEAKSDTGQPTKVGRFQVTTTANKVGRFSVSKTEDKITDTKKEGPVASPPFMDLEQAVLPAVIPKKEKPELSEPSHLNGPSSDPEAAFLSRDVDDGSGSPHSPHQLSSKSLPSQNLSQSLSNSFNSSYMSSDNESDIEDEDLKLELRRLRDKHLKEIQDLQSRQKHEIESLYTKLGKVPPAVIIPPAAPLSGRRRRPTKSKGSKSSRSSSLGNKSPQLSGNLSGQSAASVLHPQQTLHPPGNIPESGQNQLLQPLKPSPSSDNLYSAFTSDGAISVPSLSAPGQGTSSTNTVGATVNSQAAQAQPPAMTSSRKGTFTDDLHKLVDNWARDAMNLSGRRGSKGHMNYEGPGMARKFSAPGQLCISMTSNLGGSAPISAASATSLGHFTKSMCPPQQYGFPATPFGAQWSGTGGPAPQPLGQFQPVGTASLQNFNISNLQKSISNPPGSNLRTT
UniProt Q9UHY1: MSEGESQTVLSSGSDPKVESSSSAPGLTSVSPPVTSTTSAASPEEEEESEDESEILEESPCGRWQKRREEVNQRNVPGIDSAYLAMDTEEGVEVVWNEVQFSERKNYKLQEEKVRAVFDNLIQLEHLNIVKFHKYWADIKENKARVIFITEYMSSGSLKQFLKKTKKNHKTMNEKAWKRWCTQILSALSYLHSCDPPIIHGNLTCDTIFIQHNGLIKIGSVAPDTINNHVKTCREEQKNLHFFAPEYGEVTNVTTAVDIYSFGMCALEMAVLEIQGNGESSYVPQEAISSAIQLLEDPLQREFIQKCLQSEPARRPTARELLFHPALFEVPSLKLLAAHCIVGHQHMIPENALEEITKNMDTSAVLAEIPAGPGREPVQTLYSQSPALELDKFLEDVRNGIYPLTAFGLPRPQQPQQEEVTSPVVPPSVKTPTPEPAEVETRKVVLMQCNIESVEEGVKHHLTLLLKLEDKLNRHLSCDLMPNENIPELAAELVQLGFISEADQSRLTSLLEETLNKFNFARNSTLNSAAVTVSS

B1: TSC22D3, endogenous (protein, UniProt Q99576 1-134)
chain: MNTEMYQTPMEVAVYQLHNFSISFFSSLLGGDVVSVKLDNSASGASVVAIDNKIEQAMDLVKNHLMYAVREEVEILKEQIRELVEKNSQLERENTLLKTLASPEQLEKFQSCLSPEEPAPESPQVPEAPGGSAV
B2: NRBP2, endogenous (protein, UniProt Q9NSY0 1-501)
chain: MAAPEPAPRRAREREREREDESEDESDILEESPCGRWQKRREQVNQGNMPGLQSTFLAMDTEEGVEVVWNELHFGDRKAFAAHEEKIQTVFEQLVLVDHPNIVKLHKYWLDTSEACARVIFITEYVSSGSLKQFLKKTKKNHKAMNARAWKRWCTQILSALSFLHACSPPIIHGNLTSDTIFIQHNGLIKIGSVWHRIFSNALPDDLRSPIRAEREELRNLHFFPPEYGEVADGTAVDIFSFGMCALEMAVLEIQTNGDTRVTEEAIARARHSLSDPNMREFILCCLARDPARRPSAHSLLFHRVLFEVHSLKLLAAHCFIQHQYLMPENVVEEKTKAMDLHAVLAELPRPRRPPLQWRYSEVSFMELDKFLEDVRNGIYPLMNFAATRPLGLPRVLAPPPEEVQKAKTPTPEPFDSETRKVIQMQCNLERSEDKARWHLTLLLVLEDRLHRQLTYDLLPTDSAQDLASELVHYGFLHEDDRMKLAAFLESTFLKYRGTQA
B3: TSC22D1, endogenous (protein, UniProt Q15714 1-1073)
chain: MHQPPESTAAAAAAADISARKMAHPAMFPRRGSGSGSASALNAAGTGVGSNATSSEDFPPPSLLQPPPPAASSTSGPQPPPPQSLNLLSQAQLQAQPLAPGGTQMKKKSGFQITSVTPAQISASISSNNSIAEDTESYDDLDESHTEDLSSSEILDVSLSRATDLGEPERSSSEETLNNFQEAETPGAVSPNQPHLPQPHLPHLPQQNVVINGNAHPHHLHHHHQIHHGHHLQHGHHHPSHVAVASASITGGPPSSPVSRKLSTTGSSDSITPVAPTSAVSSSGSPASVMTNMRAPSTTGGIGINSVTGTSTVNNVNITAVGSFNPNVTSSMLGNVNISTSNIPSAAGVSVGPGVTSGVNVNILSGMGNGTISSSAAVSSVPNAAAGMTGGSVSSQQQQPTVNTSRFRVVKLDSSSEPFKKGRWTCTEFYEKENAVPATEGVLINKVVETVKQNPIEVTSERESTSGSSVSSSVSTLSHYTESVGSGEMGAPTVVVQQQQQQQQQQQQQPALQGVTLQQMDFGSTGPQSIPAVSIPQSISQSQISQVQLQSQELSYQQKQGLQPVPLQATMSAATGIQPSPVNVVGVTSALGQQPSISSLAQPQLPYSQAAPPVQTPLPGAPPPQQLQYGQQQPMVSTQMAPGHVKSVTQNPASEYVQQQPILQTAMSSGQPSSAGVGAGTTVIPVAQPQGIQLPVQPTAVPAQPAGASVQPVGQAPAAVSAVPTGSQIANIGQQANIPTAVQQPSTQVPPSVIQQGAPPSSQVVPPAQTGIIHQGVQTSAPSLPQQLVIASQSSLLTVPPQPQGVEPVAQGIVSQQLPAVSSLPSASSISVTSQVSSTGPSGMPSAPTNLVPPQNIAQTPATQNGNLVQSVSQPPLIATNTNLPLAQQIPLSSTQFSAQSLAQAIGSQIEDARRAAEPSLVGLPQTISGDSGGMSAVSDGSSSSLAASASLFPLKVLPLTTPLVDGEDESSSGASVVAIDNKIEQAMDLVKSHLMYAVREEVEVLKEQIKELIEKNSQLEQENNLLKTLASPEQLAQFQAQLQTGSPPATTQPQGTTQPPAQPASQGSGPTA
B4: SPACDR, endogenous (protein, UniProt Q8IZ16 1-206)
chain: MVVVMKFFRWVRRAWQRIISWVFFWRQKIKPTISGHPDSKKHSLKKMEKTLQVVETLRLVELPKEAKPKLGESPELADPCVLAKTTEETEVELGQQGQSLLQLPRTAVKSVSTLMVSALQSGWQMCSWKSSVSSASVSSQVRTQSPLKTPEAELLWEVYLVLWAVRKHLRRLYRRQERHRRHHVRCHAAPRPNPAQSLKLDAQSPL
B5: NME3, endogenous (protein, UniProt Q13232 1-169)
chain: MICLVLTIFANLFPAACTGAHERTFLAVKPDGVQRRLVGEIVRRFERKGFKLVALKLVQASEELLREHYAELRERPFYGRLVKYMASGPVVAMVWQGLDVVRTSRALIGATNPADAPPGTIRGDFCIEVGKNLIHGSDSVESARREIALWFRADELLCWEDSAGHWLYE
B6: PSME3IP1, endogenous (protein, UniProt Q9GZU8 1-254)
chain: MDGGDDGNLIIKKRFVSEAELDERRKRRQEEWEKVRKPEDPEECPEEVYDPRSLYERLQEQKDRKQQEYEEQFKFKNMVRGLDEDETNFLDEVSRQQELIEKQRREEELKELKEYRNNLKKVGISQENKKEVEKKLTVKPIETKNKFSQAKLLAGAVKHKSSESGNSVKRLKPDPEPDDKNQEPSSCKSLGNTSLSGPSIHCPSAAVCIGILPGLGAYSGSSDSESSSDSEGTINATGKIVSSIFRTNTFLEAP
B7: FAM111B, endogenous (protein, UniProt Q6SJ93 1-734)
chain: MNSMKTEENKSFSAMEDDQRTRPEVSKDTVMKQTHADTPVDHCLSGIRKCSSTFKLKSEVNKHETALEMQNPNLNNKECCFTFTLNGNSRKLDRSVFTAYGKPSESIYSALSANDYFSERIKNQFNKNIIVYEEKTIDGHINLGMPLKCLPSDSHFKITFGQRKSSKEDGHILRQCENPNMECILFHVVAIGRTRKKIVKINELHEKGSKLCIYALKGETIEGALCKDGRFRSDIGEFEWKLKEGHKKIYGKQSMVDEVSGKVLEMDISKKKALQQKDIHKKIKQNESATDEINHQSLIQSKKKVHKPKKDGETKDVEHSREQILPPQDLSHYIKDKTRQTIPRIRNYYFCSLPRKYRQINSQVRRRPHLGRRYAINLDVQKEAINLLKNYQTLNEAIMHQYPNFKEEAQWVRKYFREEQKRMNLSPAKQFNIYKKDFGKMTANSVSVATCEQLTYYSKSVGFMQWDNNGNTGNATCFVFNGGYIFTCRHVVHLMVGKNTHPSLWPDIISKCAKVTFTYTEFCPTPDNWFSIEPWLKVSNENLDYAILKLKENGNAFPPGLWRQISPQPSTGLIYLIGHPEGQIKKIDGCTVIPLNERLKKYPNDCQDGLVDLYDTTSNVYCMFTQRSFLSEVWNTHTLSYDTCFSDGSSGSPVFNASGKLVALHTFGLFYQRGFNVHALIEFGYSMDSILCDIKKTNESLYKSLNDEKLETYDEEKGKQESSLQDHQIEPMEC
B8: UBL4A, endogenous (protein, UniProt P11441 1-157)
chain: MQLTVKALQGRECSLQVPEDELVSTLKQLVSEKLNVPVRQQRLLFKGKALADGKRLSDYSIGPNSKLNLVVKPLEKVLLEEGEAQRLADSPPPQVWQLISKVLARHFSAADASRVLEQLQRDYERSLSRLTLDDIERLASRFLHPEVTETMEKGFSK
B9: OAS3, endogenous (protein, UniProt Q9Y6K5 1-1087)
chain: MDLYSTPAAALDRFVARRLQPRKEFVEKARRALGALAAALRERGGRLGAAAPRVLKTVKGGSSGRGTALKGGCDSELVIFLDCFKSYVDQRARRAEILSEMRASLESWWQNPVPGLRLTFPEQSVPGALQFRLTSVDLEDWMDVSLVPAFNVLGQAGSGVKPKPQVYSTLLNSGCQGGEHAACFTELRRNFVNIRPAKLKNLILLVKHWYHQVCLQGLWKETLPPVYALELLTIFAWEQGCKKDAFSLAEGLRTVLGLIQQHQHLCVFWTVNYGFEDPAVGQFLQRQLKRPRPVILDPADPTWDLGNGAAWHWDLLAQEAASCYDHPCFLRGMGDPVQSWKGPGLPRAGCSGLGHPIQLDPNQKTPENSKSLNAVYPRAGSKPPSCPAPGPTGAASIVPSVPGMALDLSQIPTKELDRFIQDHLKPSPQFQEQVKKAIDIILRCLHENCVHKASRVSKGGSFGRGTDLRDGCDVELIIFLNCFTDYKDQGPRRAEILDEMRAQLESWWQDQVPSLSLQFPEQNVPEALQFQLVSTALKSWTDVSLLPAFDAVGQLSSGTKPNPQVYSRLLTSGCQEGEHKACFAELRRNFMNIRPVKLKNLILLVKHWYRQVAAQNKGKGPAPASLPPAYALELLTIFAWEQGCRQDCFNMAQGFRTVLGLVQQHQQLCVYWTVNYSTEDPAMRMHLLGQLRKPRPLVLDPADPTWNVGHGSWELLAQEAAALGMQACFLSRDGTSVQPWDVMPALLYQTPAGDLDKFISEFLQPNRQFLAQVNKAVDTICSFLKENCFRNSPIKVIKVVKGGSSAKGTALRGRSDADLVVFLSCFSQFTEQGNKRAEIISEIRAQLEACQQERQFEVKFEVSKWENPRVLSFSLTSQTMLDQSVDFDVLPAFDALGQLVSGSRPSSQVYVDLIHSYSNAGEYSTCFTELQRDFIISRPTKLKSLIRLVKHWYQQCTKISKGRGSLPPQHGLELLTVYAWEQGGKDSQFNMAEGFRTVLELVTQYRQLCIYWTINYNAKDKTVGDFLKQQLQKPRPIILDPADPTGNLGHNARWDLLAKEAAACTSALCCMGRNGIPIQPWPVKAAV
B10: TBC1D30, endogenous (protein, UniProt Q9Y2I9 1-924)
chain: MDVLPTGGGRPGLRTELEFRGGGGEARLESQEEETIPAAPPAPRLRGAAERPRRSRDTWDGDEDTEPGEACGGRTSRTASLVSGLLNELYSCTEEEEAAGGGRGAEGRRRRRDSLDSSTEASGSDVVLGGRSGAGDSRVLQELQERPSQRHQMLYLRQKDANELKTILRELKYRIGIQSAKLLRHLKQKDRLLHKVQRNCDIVTACLQAVSQKRRVDTKLKFTLEPSLGQNGFQQWYDALKAVARLSTGIPKEWRRKVWLTLADHYLHSIAIDWDKTMRFTFNERSNPDDDSMGIQIVKDLHRTGCSSYCGQEAEQDRVVLKRVLLAYARWNKTVGYCQGFNILAALILEVMEGNEGDALKIMIYLIDKVLPESYFVNNLRALSVDMAVFRDLLRMKLPELSQHLDTLQRTANKESGGGYEPPLTNVFTMQWFLTLFATCLPNQTVLKIWDSVFFEGSEIILRVSLAIWAKLGEQIECCETADEFYSTMGRLTQEMLENDLLQSHELMQTVYSMAPFPFPQLAELREKYTYNITPFPATVKPTSVSGRHSKARDSDEENDPDDEDAVVNAVGCLGPFSGFLAPELQKYQKQIKEPNEEQSLRSNNIAELSPGAINSCRSEYHAAFNSMMMERMTTDINALKRQYSRIKKKQQQQVHQVYIRADKGPVTSILPSQVNSSPVINHLLLGKKMKMTNRAAKNAVIHIPGHTGGKISPVPYEDLKTKLNSPWRTHIRVHKKNMPRTKSHPGCGDTVGLIDEQNEASKTNGLGAAEAFPSGCTATAGREGSSPEGSTRRTIEGQSPEPVFGDADVDVSAVQAKLGALELNQRDAAAETELRVHPPCQRHCPEPPSAPEENKATSKAPQGSNSKTPIFSPFPSVKPLRKSATARNLGLYGPTERTPTVHFPQMSRSFSKPGGGNSGTKKR

No constants are given. Whether binding was seen depends on the method and setting. In cells and extracts the contact can be indirect. These calls come from enrichment with a bait or labelling near it, and not all partners need be listed.

One test addresses GFP-WNK1 (N-terminal GFP knock-in at the endogenous WNK1 locus) (human (endogenous in HEK293)) (UniProt Q9H4A3). Description: proximity labelling; GFP-WNK1 KI and WT HEK293 cells expressing Flag-TurboID-aGFP6M; 0.5 mM biotin with or without 0.5 M sorbitol for 5 min; streptavidin enrichment from lysate; DIA mass spectrometry.
As for B1, the binding result was “binds”. Regarding B2, the binding result is “binds”. On to B3, for which the binding result was “binds”.

The target of the next test is GFP-NRBP1 (N-terminal GFP knock-in at the endogenous NRBP1 locus) (human (endogenous in HEK293)) (UniProt Q9UHY1). Description: affinity purification with mass spectrometry; GFP-NRBP1 KI and WT HEK293 cells with or without 0.5 M sorbitol for 30 min; lysis in 20 mM Hepes pH 7.5, 150 mM NaCl, 0.5% NP-40; GFP-Trap magnetic beads, 4°C, 2 hours; DIA mass spectrometry.
For the molecule B4, the binding result was “binds”.

As to B5, the binding entry is on record as “binds”. B1: the binding result was “binds”.

For the molecule B2, the binding result is reported as “binds”. On the same count and under the same terms, the entry for B6 is “binds”; for B7 it is “binds”. For the molecule B8, the binding entry was “binds”. Still for that read-out and setting: the entry for B3 is “binds”; for B9 it is “binds”; for B10 it is “binds”.
